Measurements: paper PMC2629585
No constants are given. Whether binding was seen depends on the method and setting. Binding can be weak; no strength is given.

Target: recombinant FBG domain of L-ficolin (L-rFBG) (human)
Assay: ELISA; 0.8 ug L-rFBG immobilised first, 0.8 ug CRP added; normalised to directly immobilised protein as 100%; both purified

B1: C-reactive protein (CRP), human, purified (Sigma) (protein, UniProt P02741 19-224)
chain: QTDMSRKAFVFPKESDTSYVSLKAPLTKPLKAFTVCLHFYTELSSTRGYSIFSYATKRQDNEILIFWSKDIGYSFTVGGSEILFEVPEVTVAPVHICTSWESASGIVEFWVDGKPRVRKSLKKGYTVGAEASIILGQEQDSFGGNFEGSQSLVGDIGNVNMWDFVLSPDEINTIYLGGPFSPNVLNWRALKYEVQGEVFTKPQLWP
binding: binds
